Results are given in words; binding and its absence hold for the method and conditions named. In cells and extracts the contact can be indirect. Some binding calls cover weakened binding; strength is not graded here.
Molecular target: HA-tagged PAX8 (Paired box 8) (UniProt Q06710)
Assay: co-IP; 293T cells transfected with HA-PAX8 and GFP-DDX5 plasmids, collected 24 h after transfection; immunoprecipitation on antibody beads, SDS-PAGE and Western blot

Sequences of proteins named here, by UniProt entry; tags and fusion partners are left off.
UniProt Q06710: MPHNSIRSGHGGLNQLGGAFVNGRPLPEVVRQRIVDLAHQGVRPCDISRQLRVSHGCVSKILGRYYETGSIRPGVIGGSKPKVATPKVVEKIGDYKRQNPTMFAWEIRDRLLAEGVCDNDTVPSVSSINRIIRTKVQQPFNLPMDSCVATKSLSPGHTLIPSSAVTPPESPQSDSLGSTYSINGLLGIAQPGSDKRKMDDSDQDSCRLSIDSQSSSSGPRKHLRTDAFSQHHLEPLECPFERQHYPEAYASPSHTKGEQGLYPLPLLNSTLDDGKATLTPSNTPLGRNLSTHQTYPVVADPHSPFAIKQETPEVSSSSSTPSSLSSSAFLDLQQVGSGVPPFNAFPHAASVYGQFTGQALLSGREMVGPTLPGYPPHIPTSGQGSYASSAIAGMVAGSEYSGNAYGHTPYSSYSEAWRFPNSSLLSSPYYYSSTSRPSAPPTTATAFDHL
UniProt P17844: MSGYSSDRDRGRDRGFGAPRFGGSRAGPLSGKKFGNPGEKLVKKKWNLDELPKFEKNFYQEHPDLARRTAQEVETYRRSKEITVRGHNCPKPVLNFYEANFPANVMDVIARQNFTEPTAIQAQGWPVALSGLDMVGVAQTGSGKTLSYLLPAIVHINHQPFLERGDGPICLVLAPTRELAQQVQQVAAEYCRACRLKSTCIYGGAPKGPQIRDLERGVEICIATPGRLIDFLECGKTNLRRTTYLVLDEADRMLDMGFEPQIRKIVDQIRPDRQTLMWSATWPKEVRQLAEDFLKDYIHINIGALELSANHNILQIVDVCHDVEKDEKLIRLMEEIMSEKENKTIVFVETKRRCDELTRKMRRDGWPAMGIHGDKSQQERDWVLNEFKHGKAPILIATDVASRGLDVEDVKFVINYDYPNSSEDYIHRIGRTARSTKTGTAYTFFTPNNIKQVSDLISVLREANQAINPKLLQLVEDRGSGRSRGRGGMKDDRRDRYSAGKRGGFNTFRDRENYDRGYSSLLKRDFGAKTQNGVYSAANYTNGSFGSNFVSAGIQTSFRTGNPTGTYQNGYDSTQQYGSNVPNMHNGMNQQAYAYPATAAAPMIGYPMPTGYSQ

binding: binds
Substance: GFP-DDX5 (from UniProt P17844 1-614)

From publication PMC9174161
